Experimental data: PMC8400394, “Adsorption of Recombinant Human β-Defensin 2 and Two Mutants on Mesoporous Silica Nanoparticles and Its Effect against Clavibacter michiganensis subsp. michiganensis” (Nanomaterials, 2021)

Test: Release (desorption) of AMPs from MSN5.4
Settings: PBS

human β-defensin-2 [hβD2]
concentration released from MSN5.4 at first registered desorption (120 h) (28 ± 2 °C, BCA total protein, 120 h): 2.8 µg/mL
total amount released from MSN5.4 (cumulative release) (28 ± 2 °C, as far as monitored (216 h), loaded with 0.5 mg AMP): approximately 55 µg
time after which release from MSN5.4 begins (total protein quantified for 216 h): > 120 h
